{"source": "the supplement of paper PMC8728848", "binders": {"B1": {"name": "FimA-N2 (Actinomyces oris) (protein)", "chain": "MHHHHHHSSGVDLGTENLYFQSNAWIYDVNVYPKNEAIDVDKTIQAQKLNGYGVGSLIKFPVESTAPTLDAKSFYKYFQLKDTLDERLSEVTATDVSLEGTPLQPTDYKVETKQQTVTVTFTAEGLKKIKAAPGKKVSAVFQGKVTKAGNGAITNRAQVISDTLYAEQPPTPETPPTDPENPPTSDEVISRWGDLSIKKVDTHQQGQTKA"}}, "assay_in_all_cases": "glycan array binding signal (z-score within array); higher = stronger binding", "details_in_all_cases": "glycan notation: IUPAC condensed, linker removed", "key": {"[1]": {"target": "Gal(b1-4)GlcNAc(b1-3)Gal(b1-4)GlcNAc(b1-3)Gal(b1-4)GlcNAc(b1-3)Gal(b1-4)GlcNAc(b1-2)Man(a1-3)[Gal(b1-4)GlcNAc(b1-3)Gal(b1-4)GlcNAc(b1-3)Gal(b1-4)GlcNAc(b1-3)Gal(b1-4)GlcNAc(b1-2)Man(a1-6)]Man(b1-4)GlcNAc(b1-4)[Fuc(a1-6)]GlcNAc", "summary_of_the_method": "(§1)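 Arrays were curated from the Consortium for Functional Glycomics database, 3228 in total, and kept only where the protein sequence was available. Binding is expressed as a within-array Z-score. This score was averaged across arrays of the same protein sequence at different concentrations or buffers and across linkers, and negative values can be read as non-binding.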"}, "[2]": {"target": "Gal(b1-4)GlcNAc(b1-3)Gal(b1-4)GlcNAc(b1-3)Gal(b1-4)GlcNAc(b1-3)Gal(b1-4)GlcNAc(b1-2)[Gal(b1-4)GlcNAc(b1-3)Gal(b1-4)GlcNAc(b1-3)Gal(b1-4)GlcNAc(b1-3)Gal(b1-4)GlcNAc(b1-6)]Man(a1-6)[Gal(b1-4)GlcNAc(b1-3)Gal(b1-4)GlcNAc(b1-3)Gal(b1-4)GlcNAc(b1-3)Gal(b1-4)GlcNAc(b1-2)Man(a1-3)]Man(b1-4)GlcNAc(b1-4)[Fuc(a1-6)]GlcNAc", "summary_of_the_method": "as §1"}, "[3]": {"target": "Gal(b1-4)GlcNAc(b1-3)Gal(b1-4)GlcNAc(b1-3)Gal(b1-4)GlcNAc(b1-3)Gal(b1-4)GlcNAc(b1-3)Gal(b1-4)GlcNAc(b1-2)Man(a1-3)[Gal(b1-4)GlcNAc(b1-3)Gal(b1-4)GlcNAc(b1-3)Gal(b1-4)GlcNAc(b1-3)Gal(b1-4)GlcNAc(b1-3)Gal(b1-4)GlcNAc(b1-2)Man(a1-6)]Man(b1-4)GlcNAc(b1-4)GlcNAc", "summary_of_the_method": "as §1"}, "[4]": {"target": "Gal(b1-4)GlcNAc(b1-3)Gal(b1-4)GlcNAc(b1-3)Gal(b1-4)GlcNAc(b1-3)Gal(b1-4)GlcNAc(b1-3)Gal(b1-4)GlcNAc(b1-2)Man(a1-3)[Gal(b1-4)GlcNAc(b1-3)Gal(b1-4)GlcNAc(b1-3)Gal(b1-4)GlcNAc(b1-3)Gal(b1-4)GlcNAc(b1-3)Gal(b1-4)GlcNAc(b1-2)Man(a1-6)]Man(b1-4)GlcNAc(b1-4)[Fuc(a1-6)]GlcNAc", "summary_of_the_method": "as §1"}, "[5]": {"target": "Gal(b1-4)GlcNAc(b1-3)Gal(b1-4)GlcNAc(b1-3)Gal(b1-4)GlcNAc(b1-3)Gal(b1-4)GlcNAc(b1-3)Gal(b1-4)GlcNAc(b1-2)[Gal(b1-4)GlcNAc(b1-3)Gal(b1-4)GlcNAc(b1-3)Gal(b1-4)GlcNAc(b1-3)Gal(b1-4)GlcNAc(b1-3)Gal(b1-4)GlcNAc(b1-6)]Man(a1-6)[Gal(b1-4)GlcNAc(b1-3)Gal(b1-4)GlcNAc(b1-3)Gal(b1-4)GlcNAc(b1-3)Gal(b1-4)GlcNAc(b1-3)Gal(b1-4)GlcNAc(b1-2)Man(a1-3)]Man(b1-4)GlcNAc(b1-4)[Fuc(a1-6)]GlcNAc", "summary_of_the_method": "as §1"}, "[6]": {"target": "Gal(b1-4)GlcNAc(b1-3)Gal(b1-4)GlcNAc(b1-3)Gal(b1-4)GlcNAc(b1-3)Gal(b1-4)GlcNAc(b1-3)Gal(b1-4)GlcNAc(b1-3)Gal(b1-4)GlcNAc(b1-2)Man(a1-3)[Gal(b1-4)GlcNAc(b1-3)Gal(b1-4)GlcNAc(b1-3)Gal(b1-4)GlcNAc(b1-3)Gal(b1-4)GlcNAc(b1-3)Gal(b1-4)GlcNAc(b1-3)Gal(b1-4)GlcNAc(b1-2)Man(a1-6)]Man(b1-4)GlcNAc(b1-4)GlcNAc", "summary_of_the_method": "as §1"}, "[7]": {"target": "Gal(b1-4)GlcNAc(b1-3)Gal(b1-4)GlcNAc(b1-3)GalNAc", "summary_of_the_method": "as §1"}, "[8]": {"target": "Gal(b1-4)GlcNAc(b1-3)Gal(b1-4)GlcNAc(b1-3)[Gal(b1-4)GlcNAc(b1-3)Gal(b1-4)GlcNAc(b1-6)]GalNAc", "summary_of_the_method": "as §1"}, "[9]": {"target": "Gal(b1-4)GlcNAc(b1-3)Gal(b1-4)GlcNAc(b1-6)[Gal(b1-3)]GalNAc", "summary_of_the_method": "as §1"}, "[10]": {"target": "Gal(b1-4)GlcNAc(b1-3)Gal(b1-4)[Fuc(a1-3)]GlcNAc(b1-3)Gal(b1-4)[Fuc(a1-3)]GlcNAc", "summary_of_the_method": "as §1"}, "[11]": {"target": "Gal(b1-4)GlcNAc(b1-3)GalNAc", "summary_of_the_method": "as §1"}, "[12]": {"target": "Gal(b1-4)GlcNAc(b1-3)[Fuc(a1-3)GlcNAc(b1-6)]Gal(b1-4)Glc", "summary_of_the_method": "as §1"}, "[13]": {"target": "Gal(b1-4)GlcNAc(b1-3)[Gal(b1-4)GlcNAc(b1-6)]Gal(b1-4)GlcNAc", "summary_of_the_method": "as §1"}, "[14]": {"target": "Gal(b1-4)GlcNAc(b1-3)[GlcNAc(b1-6)]Gal(b1-4)GlcNAc", "summary_of_the_method": "as §1"}, "[15]": {"target": "Gal(b1-4)GlcNAc(b1-6)Gal(b1-4)GlcNAc", "summary_of_the_method": "as §1"}, "[16]": {"target": "Gal(b1-4)GlcNAc(b1-6)GalNAc", "summary_of_the_method": "as §1"}, "[17]": {"target": "Gal(b1-4)GlcNAc(b1-6)[Gal(b1-3)]GalNAc", "summary_of_the_method": "as §1"}, "[18]": {"target": "Gal(b1-4)GlcNAc(b1-6)[Gal(b1-4)GlcNAc(b1-3)]GalNAc", "summary_of_the_method": "as §1"}, "[19]": {"target": "Gal(b1-4)GlcNAc6P", "summary_of_the_method": "as §1"}, "[20]": {"target": "Gal(b1-6)Gal", "summary_of_the_method": "as §1"}, "[21]": {"target": "Gal3S(b1-3)GalNAc", "summary_of_the_method": "as §1"}, "[22]": {"target": "Gal3S(b1-3)GlcNAc", "summary_of_the_method": "as §1"}, "[23]": {"target": "Gal3S(b1-3)[Fuc(a1-4)]GlcNAc", "summary_of_the_method": "as §1"}}, "note": "This is one part of the list.", "data": [{"binder": "B1", "values": [{"measurement": "glycan array binding signal (z-score)", "setting": "[1]", "value": 0.949}, {"measurement": "glycan array binding signal (z-score)", "setting": "[2]", "value": 0.488}, {"measurement": "glycan array binding signal (z-score)", "setting": "[3]", "value": 0.294}, {"measurement": "glycan array binding signal (z-score)", "setting": "[4]", "value": -0.168}, {"measurement": "glycan array binding signal (z-score)", "setting": "[5]", "value": 0.469}, {"measurement": "glycan array binding signal (z-score)", "setting": "[6]", "value": -0.052}, {"measurement": "glycan array binding signal (z-score)", "setting": "[7]", "value": 0.077}, {"measurement": "glycan array binding signal (z-score)", "setting": "[8]", "value": -0.386}, {"measurement": "glycan array binding signal (z-score)", "setting": "[9]", "value": 0.785}, {"measurement": "glycan array binding signal (z-score)", "setting": "[10]", "value": 1.91}, {"measurement": "glycan array binding signal (z-score)", "setting": "[11]", "value": -0.038}, {"measurement": "glycan array binding signal (z-score)", "setting": "[12]", "value": -0.443}, {"measurement": "glycan array binding signal (z-score)", "setting": "[13]", "value": -0.505}, {"measurement": "glycan array binding signal (z-score)", "setting": "[14]", "value": -0.725}, {"measurement": "glycan array binding signal (z-score)", "setting": "[15]", "value": -0.5}, {"measurement": "glycan array binding signal (z-score)", "setting": "[16]", "value": -0.06}, {"measurement": "glycan array binding signal (z-score)", "setting": "[17]", "value": -0.116}, {"measurement": "glycan array binding signal (z-score)", "setting": "[18]", "value": 0.181}, {"measurement": "glycan array binding signal (z-score)", "setting": "[19]", "value": 0.958}, {"measurement": "glycan array binding signal (z-score)", "setting": "[20]", "value": -1.05}, {"measurement": "glycan array binding signal (z-score)", "setting": "[21]", "value": 0.907}, {"measurement": "glycan array binding signal (z-score)", "setting": "[22]", "value": 0.697}, {"measurement": "glycan array binding signal (z-score)", "setting": "[23]", "value": 0.427}]}]}
